We go through 26 targets from the supplement of paper PMC12819154, “High-throughput peptide-centric local stability assay extends protein–ligand identification to membrane proteins, tissues and bacteria” (Nature Structural & Molecular Biology, 2025).

Chains of the proteins cited; added tags and fusions are not shown. Lines headed by an entry give the natural chain unless they say otherwise; changes in a name come on top.
UniProt Q6NXE6: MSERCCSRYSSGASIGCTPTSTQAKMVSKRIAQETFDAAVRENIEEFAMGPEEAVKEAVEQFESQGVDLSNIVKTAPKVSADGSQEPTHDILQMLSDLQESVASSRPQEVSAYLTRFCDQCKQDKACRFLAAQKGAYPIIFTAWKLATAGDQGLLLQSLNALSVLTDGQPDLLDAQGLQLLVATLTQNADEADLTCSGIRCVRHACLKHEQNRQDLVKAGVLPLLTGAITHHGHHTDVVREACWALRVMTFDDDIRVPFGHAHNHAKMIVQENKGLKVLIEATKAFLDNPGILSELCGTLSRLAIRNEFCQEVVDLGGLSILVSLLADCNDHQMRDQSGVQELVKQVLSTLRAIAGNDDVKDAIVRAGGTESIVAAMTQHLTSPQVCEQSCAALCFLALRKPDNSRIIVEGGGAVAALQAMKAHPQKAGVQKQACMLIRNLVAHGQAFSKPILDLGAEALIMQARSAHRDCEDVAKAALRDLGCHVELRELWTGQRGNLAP
UniProt Q6NZ36: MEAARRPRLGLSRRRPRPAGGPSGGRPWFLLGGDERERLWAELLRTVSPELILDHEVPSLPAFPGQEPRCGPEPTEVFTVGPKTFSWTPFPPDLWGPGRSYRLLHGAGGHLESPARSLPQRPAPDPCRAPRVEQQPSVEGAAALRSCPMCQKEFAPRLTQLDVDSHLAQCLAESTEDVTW
UniProt Q68DC2: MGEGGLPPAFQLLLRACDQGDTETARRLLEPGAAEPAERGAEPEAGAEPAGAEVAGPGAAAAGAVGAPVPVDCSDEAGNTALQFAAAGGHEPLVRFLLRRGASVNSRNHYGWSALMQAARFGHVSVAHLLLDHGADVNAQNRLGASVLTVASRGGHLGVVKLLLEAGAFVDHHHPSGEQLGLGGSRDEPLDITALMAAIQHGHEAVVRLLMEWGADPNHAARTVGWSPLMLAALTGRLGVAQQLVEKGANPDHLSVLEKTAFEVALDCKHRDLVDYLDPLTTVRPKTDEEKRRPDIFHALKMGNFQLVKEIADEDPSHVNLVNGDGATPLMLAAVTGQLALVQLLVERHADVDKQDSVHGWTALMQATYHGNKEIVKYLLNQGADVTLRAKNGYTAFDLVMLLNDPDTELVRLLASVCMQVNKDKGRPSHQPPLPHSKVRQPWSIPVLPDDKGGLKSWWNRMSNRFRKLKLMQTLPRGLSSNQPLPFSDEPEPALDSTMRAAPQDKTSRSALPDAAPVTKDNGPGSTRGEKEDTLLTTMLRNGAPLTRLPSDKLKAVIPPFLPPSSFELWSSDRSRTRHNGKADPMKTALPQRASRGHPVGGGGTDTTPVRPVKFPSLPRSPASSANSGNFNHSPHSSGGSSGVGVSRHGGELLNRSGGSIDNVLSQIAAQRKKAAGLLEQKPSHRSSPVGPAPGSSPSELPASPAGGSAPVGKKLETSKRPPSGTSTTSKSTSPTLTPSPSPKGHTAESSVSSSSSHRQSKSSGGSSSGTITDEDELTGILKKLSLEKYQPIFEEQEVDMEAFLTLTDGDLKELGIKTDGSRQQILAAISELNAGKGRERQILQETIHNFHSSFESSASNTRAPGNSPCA
UniProt Q6NUQ4: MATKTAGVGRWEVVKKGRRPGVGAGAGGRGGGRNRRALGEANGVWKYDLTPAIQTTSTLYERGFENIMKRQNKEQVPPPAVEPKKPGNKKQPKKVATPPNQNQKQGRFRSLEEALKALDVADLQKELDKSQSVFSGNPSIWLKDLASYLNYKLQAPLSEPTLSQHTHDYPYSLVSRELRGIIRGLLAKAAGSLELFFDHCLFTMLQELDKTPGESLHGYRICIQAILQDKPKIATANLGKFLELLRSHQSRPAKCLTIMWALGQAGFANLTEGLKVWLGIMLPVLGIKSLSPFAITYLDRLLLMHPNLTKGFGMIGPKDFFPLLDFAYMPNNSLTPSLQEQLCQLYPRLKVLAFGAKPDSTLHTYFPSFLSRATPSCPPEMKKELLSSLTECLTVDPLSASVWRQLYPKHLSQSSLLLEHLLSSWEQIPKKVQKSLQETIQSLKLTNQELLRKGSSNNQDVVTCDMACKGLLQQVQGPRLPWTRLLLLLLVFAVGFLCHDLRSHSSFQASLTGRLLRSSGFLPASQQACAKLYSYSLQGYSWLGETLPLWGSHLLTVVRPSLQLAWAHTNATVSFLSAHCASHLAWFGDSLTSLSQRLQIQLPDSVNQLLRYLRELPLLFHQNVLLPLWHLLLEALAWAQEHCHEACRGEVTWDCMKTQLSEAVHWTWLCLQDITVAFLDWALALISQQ
UniProt Q6PJT7: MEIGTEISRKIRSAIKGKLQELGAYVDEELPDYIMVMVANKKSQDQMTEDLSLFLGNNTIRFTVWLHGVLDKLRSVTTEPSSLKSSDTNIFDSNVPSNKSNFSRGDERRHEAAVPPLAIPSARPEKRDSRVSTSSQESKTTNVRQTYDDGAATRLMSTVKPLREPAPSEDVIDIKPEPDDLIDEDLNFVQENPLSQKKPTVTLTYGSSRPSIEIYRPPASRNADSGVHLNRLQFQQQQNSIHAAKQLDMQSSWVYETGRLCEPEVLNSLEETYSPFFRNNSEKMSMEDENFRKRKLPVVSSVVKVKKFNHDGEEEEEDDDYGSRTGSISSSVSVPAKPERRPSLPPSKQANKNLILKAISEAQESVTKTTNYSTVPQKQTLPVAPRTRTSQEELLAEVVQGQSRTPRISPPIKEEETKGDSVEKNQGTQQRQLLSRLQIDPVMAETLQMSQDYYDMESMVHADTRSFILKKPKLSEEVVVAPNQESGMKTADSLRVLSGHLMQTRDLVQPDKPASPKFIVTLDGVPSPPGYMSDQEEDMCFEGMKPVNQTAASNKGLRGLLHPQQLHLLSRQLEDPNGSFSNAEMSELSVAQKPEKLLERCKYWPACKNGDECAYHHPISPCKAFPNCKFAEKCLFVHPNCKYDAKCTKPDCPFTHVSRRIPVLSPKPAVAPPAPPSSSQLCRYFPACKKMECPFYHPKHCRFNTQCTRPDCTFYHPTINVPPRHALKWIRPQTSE
UniProt Q6PJ69: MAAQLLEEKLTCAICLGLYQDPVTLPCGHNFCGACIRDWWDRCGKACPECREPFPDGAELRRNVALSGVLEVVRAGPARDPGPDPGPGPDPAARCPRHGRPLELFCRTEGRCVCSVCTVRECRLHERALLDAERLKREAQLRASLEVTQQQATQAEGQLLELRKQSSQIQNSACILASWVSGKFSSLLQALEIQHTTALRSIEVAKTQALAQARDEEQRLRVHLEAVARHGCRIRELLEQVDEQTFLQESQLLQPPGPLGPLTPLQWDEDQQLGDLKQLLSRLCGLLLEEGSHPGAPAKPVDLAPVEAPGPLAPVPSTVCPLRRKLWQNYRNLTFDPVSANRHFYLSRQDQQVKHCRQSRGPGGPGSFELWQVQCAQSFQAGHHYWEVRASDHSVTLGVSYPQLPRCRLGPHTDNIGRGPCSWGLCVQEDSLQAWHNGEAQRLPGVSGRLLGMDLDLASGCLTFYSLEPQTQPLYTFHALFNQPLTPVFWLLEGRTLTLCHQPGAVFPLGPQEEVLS
UniProt Q6P4F2: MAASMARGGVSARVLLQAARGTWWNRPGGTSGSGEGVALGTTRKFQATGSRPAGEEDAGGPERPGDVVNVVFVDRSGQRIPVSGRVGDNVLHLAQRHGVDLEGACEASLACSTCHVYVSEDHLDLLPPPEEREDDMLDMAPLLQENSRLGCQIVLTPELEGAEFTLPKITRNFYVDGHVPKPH
UniProt Q5VZE5: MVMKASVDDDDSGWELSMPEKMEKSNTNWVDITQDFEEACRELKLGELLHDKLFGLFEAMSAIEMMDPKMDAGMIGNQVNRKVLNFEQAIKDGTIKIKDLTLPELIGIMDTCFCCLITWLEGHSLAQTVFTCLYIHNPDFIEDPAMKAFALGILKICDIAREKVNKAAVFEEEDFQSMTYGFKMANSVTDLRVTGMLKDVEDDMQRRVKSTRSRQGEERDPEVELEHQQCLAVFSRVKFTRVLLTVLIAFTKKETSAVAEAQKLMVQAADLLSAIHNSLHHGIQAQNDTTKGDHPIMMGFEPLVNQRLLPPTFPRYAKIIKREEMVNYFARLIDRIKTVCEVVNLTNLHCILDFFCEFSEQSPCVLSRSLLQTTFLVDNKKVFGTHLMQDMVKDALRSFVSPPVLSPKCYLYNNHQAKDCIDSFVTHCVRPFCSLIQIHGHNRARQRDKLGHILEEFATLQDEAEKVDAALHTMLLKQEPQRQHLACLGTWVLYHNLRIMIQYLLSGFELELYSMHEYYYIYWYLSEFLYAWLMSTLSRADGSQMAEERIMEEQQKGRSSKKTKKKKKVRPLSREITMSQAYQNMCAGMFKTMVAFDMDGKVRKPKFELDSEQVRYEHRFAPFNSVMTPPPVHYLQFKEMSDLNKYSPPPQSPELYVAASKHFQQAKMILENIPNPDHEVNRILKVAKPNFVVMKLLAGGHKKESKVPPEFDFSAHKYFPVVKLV
UniProt Q6PI26: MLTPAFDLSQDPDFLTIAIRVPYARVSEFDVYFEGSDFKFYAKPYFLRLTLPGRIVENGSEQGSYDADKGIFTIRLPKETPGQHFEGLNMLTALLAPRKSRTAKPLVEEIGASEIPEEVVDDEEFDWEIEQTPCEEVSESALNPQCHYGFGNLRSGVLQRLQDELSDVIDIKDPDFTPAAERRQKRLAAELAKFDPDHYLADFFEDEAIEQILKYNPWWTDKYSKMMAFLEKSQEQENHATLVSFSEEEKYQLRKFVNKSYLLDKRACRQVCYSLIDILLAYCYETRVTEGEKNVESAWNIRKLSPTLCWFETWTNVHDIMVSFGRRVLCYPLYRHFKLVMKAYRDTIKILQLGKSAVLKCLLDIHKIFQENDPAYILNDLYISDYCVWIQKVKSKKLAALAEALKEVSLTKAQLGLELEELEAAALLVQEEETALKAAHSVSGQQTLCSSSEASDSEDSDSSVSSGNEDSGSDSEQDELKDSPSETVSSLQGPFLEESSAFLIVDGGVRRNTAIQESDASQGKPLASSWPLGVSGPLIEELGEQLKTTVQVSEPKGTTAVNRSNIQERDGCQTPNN
UniProt Q6DKK2: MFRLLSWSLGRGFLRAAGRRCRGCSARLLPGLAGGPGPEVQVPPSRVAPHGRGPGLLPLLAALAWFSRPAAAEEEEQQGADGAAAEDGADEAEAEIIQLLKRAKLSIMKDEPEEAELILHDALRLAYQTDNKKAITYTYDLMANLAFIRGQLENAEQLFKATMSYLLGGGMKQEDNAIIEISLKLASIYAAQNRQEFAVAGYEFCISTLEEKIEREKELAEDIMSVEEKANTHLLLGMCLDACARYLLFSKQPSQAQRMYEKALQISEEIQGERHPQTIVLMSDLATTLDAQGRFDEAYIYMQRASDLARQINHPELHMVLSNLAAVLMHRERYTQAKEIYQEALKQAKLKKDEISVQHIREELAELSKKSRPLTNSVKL
UniProt Q6AZZ1: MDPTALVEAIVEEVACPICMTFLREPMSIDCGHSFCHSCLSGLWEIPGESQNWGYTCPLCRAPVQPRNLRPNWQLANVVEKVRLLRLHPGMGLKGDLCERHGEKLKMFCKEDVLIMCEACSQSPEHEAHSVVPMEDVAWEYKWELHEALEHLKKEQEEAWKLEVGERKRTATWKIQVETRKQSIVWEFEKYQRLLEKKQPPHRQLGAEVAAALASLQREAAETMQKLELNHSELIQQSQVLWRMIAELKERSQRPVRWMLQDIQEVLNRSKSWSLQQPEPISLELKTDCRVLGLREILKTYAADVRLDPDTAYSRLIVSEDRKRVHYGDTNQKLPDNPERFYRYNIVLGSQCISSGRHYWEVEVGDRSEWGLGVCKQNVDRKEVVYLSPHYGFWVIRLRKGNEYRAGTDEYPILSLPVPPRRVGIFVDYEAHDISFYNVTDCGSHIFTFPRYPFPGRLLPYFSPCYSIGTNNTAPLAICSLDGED
UniProt Q68DI1: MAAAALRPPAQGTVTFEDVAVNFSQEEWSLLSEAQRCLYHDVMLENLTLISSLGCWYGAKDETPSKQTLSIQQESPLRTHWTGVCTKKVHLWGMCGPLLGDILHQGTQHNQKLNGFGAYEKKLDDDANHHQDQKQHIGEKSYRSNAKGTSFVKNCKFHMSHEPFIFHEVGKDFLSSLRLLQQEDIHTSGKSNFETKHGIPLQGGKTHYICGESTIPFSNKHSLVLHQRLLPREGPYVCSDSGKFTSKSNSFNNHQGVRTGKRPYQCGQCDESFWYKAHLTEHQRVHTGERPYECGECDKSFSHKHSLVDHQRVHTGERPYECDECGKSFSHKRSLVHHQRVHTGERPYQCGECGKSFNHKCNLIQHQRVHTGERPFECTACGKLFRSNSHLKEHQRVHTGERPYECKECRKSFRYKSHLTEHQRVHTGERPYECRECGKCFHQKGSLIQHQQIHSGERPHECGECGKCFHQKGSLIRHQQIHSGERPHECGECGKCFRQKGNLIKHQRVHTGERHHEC

Some of the results follow. Small differences around the control level are noise.

Compound in the assay: Cc1nc(Nc2ncc(C(=O)Nc3c(C)cccc3Cl)s2)cc(N2CCN(CCO)CC2)n1 [dasatinib]
Nature of the assay: log2 fold change of tryptic peptide abundance, ligand vs vehicle (limited proteolysis) (log2 ratio); higher = more trypsin-susceptible (destabilized). The note with it: ligand concentration: 5 uM; sample: K562 cleared lysate.
For the target “SCYL2 (peptide sequence: FEKDQIIDSLKR, peptide start residue: 77) (UniProt Q6P3W7)”, the log2 fold change was -1.01. “PRPF38B (peptide sequence: DGKEGAEEIDR, peptide start residue: 243) (UniProt Q5VTL8)”: the log2 fold change is -0.215. With “OGFOD2 (peptide sequence: GGQLHGARPLGTGER, peptide start residue: 286) (UniProt Q6N063)”, the log2 fold change is -0.378. The same measure for “CTR9 (peptide sequence: TKNILMFTGETEATKEK, peptide start residue: 885) (UniProt Q6PD62)”: 0.627; for “RCSD1 (peptide sequence: VKSSPLIEK, peptide start residue: 80) (UniProt Q6JBY9)”: -0.165. The same measure for “ARMC6 (peptide sequence: AGVLPLLTGAITHHGHHTDVVR, peptide start residue: 219) (UniProt Q6NXE6)”: -0.142; for “FAAP20 (peptide sequence: SLPQRPAPDPCRAPR, peptide start residue: 117) (UniProt Q6NZ36)”: 0.0595; for “ANKS6 (peptide sequence: ACDQGDTETARR, peptide start residue: 16) (UniProt Q68DC2)”: 0.673. For “UniProt Q6AW86 (peptide sequence: QKPCAQEVPGR, peptide start residue: 195)”, the log2 fold change worked out at 0.217. With “TMEM214 (peptide sequence: KGSSNNQDVVTCDMACK, peptide start residue: 453) (UniProt Q6NUQ4)”, the log2 fold change stood at 0.192.

For “CASC1 (peptide sequence: LLQEEEER, peptide start residue: 377) (UniProt Q6TDU7)”, the log2 fold change was -0.0204.

As for “FIGNL1 (peptide sequence: RLYIPLPEASAR, peptide start residue: 562) (UniProt Q6PIW4)”, the log2 fold change was 0.471. The result for “ZC3H14 (peptide sequence: RIPVLSPKPAVAPPAPPSSSQLCR, peptide start residue: 660) (UniProt Q6PJT7)” reads -0.564; that for “UniProt Q69YN4 (peptide sequence: FFTPPASK, peptide start residue: 1706)”, -0.162. On to “MBNL2 (peptide sequence: VIACFDSLK, peptide start residue: 50) (UniProt Q5VZF2)”, for which the log2 fold change was -0.0546. As to “TRIM65 (peptide sequence: TEGRCVCSVCTVRECR, peptide start residue: 108) (UniProt Q6PJ69)”, the log2 fold change is 0.58. On to “TTC27 (peptide sequence: AEEILRQELEK, peptide start residue: 485) (UniProt Q6P3X3)”, for which the log2 fold change came to 0.27. The same measure for “FDX2 (peptide sequence: NFYVDGHVPKPH, peptide start residue: 175) (UniProt Q6P4F2)”: 0.000417; for “UniProt Q5VZE5 (peptide sequence: IMEEQQK, peptide start residue: 550)”: -0.284. Take “SHQ1 (peptide sequence: YNPWWTDKYSK, peptide start residue: 215) (UniProt Q6PI26)”: the log2 fold change was found to be 0.284. Consider “MRNIP (peptide sequence: SSHVDSEQPR, peptide start residue: 239) (UniProt Q6NTE8)”, for which the log2 fold change was determined as 0.259.

Take “TTC19 (peptide sequence: EIYQEALK, peptide start residue: 339) (UniProt Q6DKK2)”: the log2 fold change was found to be 0.266. As to “RPGRIP1L (peptide sequence: LHDENILLK, peptide start residue: 57) (UniProt Q68CZ1)”, the log2 fold change worked out at 0.439. The same measure for “WDR74 (peptide sequence: HFSTEDGIFQGQR, peptide start residue: 69) (UniProt Q6RFH5)”: 0.152.

Consider “TRIM68 (peptide sequence: KRVHYGDTNQK, peptide start residue: 323) (UniProt Q6AZZ1)”, for which the log2 fold change was 0.24. As to “UniProt Q68DI1 (peptide sequence: EGPYVCSDSGK, peptide start residue: 233)”, the log2 fold change was determined as 0.277.
